{"source": "PubChem BioAssay AID743454 | Peter MacCallum Cancer Centre | 2014", "assay": "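Search for knock-downs that restore vorinostat killing in resistant colon cancer cells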 (primary screen)", "cells": "human HCT116-VR colon cancer cells, selected for vorinostat resistance", "knock-down reagent": "siRNA pool against human genes, 40 nM siRNA pool", "time to read-out": "vorinostat for 24 h, read-out about 72 h after transfection", "challenge": "vorinostat at 2.5 µM final", "measurement": "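Cell viability by CellTiter-Fluor and caspase 3/7 activity by luminescence, each scaled to mock wells per plate, duplicates averaged, then robust z-scored over all plates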", "direction": "viability robust z-score: higher = more viable cells than screen typical; caspase robust z-score: higher = more caspase 3/7 activity than screen typical", "rule for the call": "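Hits are knock-downs in viability class RV1/RV2 or caspase class CA1/CA2, excluding ones that killed cells in the no-drug cell-count arm; hits then retested with single siRNAs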", "note": "Here is a random part of about 18,000 reagents tested. Of all reagents, 450 (2.5%) were called active. 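Single biological run; no consistent viability z cut-off exists, so the class columns, not z-scores, define the calls.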 Unmarked entries are inactive."}
{"target gene": "CAPN9 (GeneID 10753)", "PubChem SID": "SID135621077", "viability hit class": "no change", "caspase hit class": "no change", "viability robust z-score": -0.22, "caspase robust z-score": 0.52}
{"target gene": "STRN4 (GeneID 29888)", "PubChem SID": "SID152156652", "viability hit class": "no change", "caspase hit class": "no change", "viability robust z-score": -0.03, "caspase robust z-score": 2.13}
{"target gene": "TP53I13 (GeneID 90313)", "PubChem SID": "SID135622958", "viability hit class": "no change", "caspase hit class": "no change", "viability robust z-score": -1.58, "caspase robust z-score": 4.37}
{"target gene": "NPFFR1 (GeneID 64106)", "PubChem SID": "SID152151280", "viability hit class": "no change", "caspase hit class": "no change", "viability robust z-score": 0.61, "caspase robust z-score": 1.14}
{"target gene": "SERPINB3 (GeneID 6317)", "PubChem SID": "SID152153851", "viability hit class": "no change", "caspase hit class": "no change", "viability robust z-score": 0.28, "caspase robust z-score": 0.04}
{"target gene": "NLK (GeneID 51701)", "PubChem SID": "SID56478865", "viability hit class": "no change", "caspase hit class": "no change", "viability robust z-score": 0.86, "caspase robust z-score": -0.52}
{"target gene": "PABIR1 (GeneID 116224)", "PubChem SID": "SID134319537", "viability hit class": "no change", "caspase hit class": "no change", "viability robust z-score": 1.5, "caspase robust z-score": -0.72}
{"target gene": "TAF4 (GeneID 6874)", "PubChem SID": "SID152156190", "viability hit class": "no change", "caspase hit class": "no change", "viability robust z-score": -0.18, "caspase robust z-score": -0.32}
{"target gene": "TAP2 (GeneID 6891)", "PubChem SID": "SID152150597", "viability hit class": "no change", "caspase hit class": "no change", "viability robust z-score": 1.16, "caspase robust z-score": -0.02}
{"target gene": "CLEC3A (GeneID 10143)", "PubChem SID": "SID152148636", "viability hit class": "no change", "caspase hit class": "no change", "viability robust z-score": -0.5, "caspase robust z-score": -0.83}
{"target gene": "TNNI3K (GeneID 51086)", "PubChem SID": "SID56478945", "viability hit class": "no change", "caspase hit class": "no change", "viability robust z-score": 0.29, "caspase robust z-score": -0.58}
{"target gene": "RBM18 (GeneID 92400)", "PubChem SID": "SID134319134", "viability hit class": "no change", "caspase hit class": "no change", "viability robust z-score": -0.17, "caspase robust z-score": -0.24}

2 entries from above in another layout:
target gene	PubChem SID	viability hit class	caspase hit class	viability robust z-score	caspase robust z-score
SERPINB3 (GeneID 6317)	SID152153851	no change	no change	0.28	0.04
NLK (GeneID 51701)	SID56478865	no change	no change	0.86	-0.52
